Source: publication PMC6294489, “Structural basis for receptor-regulated SMAD recognition by MAN1” (Nucleic Acids Research, 2018)
Positions count from the first letter of the chain named. These are yes or no findings as the source states them, for the method shown. Binding seen in cells or lysates may run through a third protein. Some results given as binding are weak or reduced against the parent protein; the word gives no strength. Tags and fused reporters may be left off the sequences shown.

The chains behind the UniProt entries cited, without tags or fusion partners. Where a name states a change or a piece, a line headed by the entry shows the natural chain unless it says otherwise. A line that says so, or that is headed by a name, gives the form on record, which may keep a tag or linker.
Flag-SMAD1E (full-length) (Q15797-1, form named): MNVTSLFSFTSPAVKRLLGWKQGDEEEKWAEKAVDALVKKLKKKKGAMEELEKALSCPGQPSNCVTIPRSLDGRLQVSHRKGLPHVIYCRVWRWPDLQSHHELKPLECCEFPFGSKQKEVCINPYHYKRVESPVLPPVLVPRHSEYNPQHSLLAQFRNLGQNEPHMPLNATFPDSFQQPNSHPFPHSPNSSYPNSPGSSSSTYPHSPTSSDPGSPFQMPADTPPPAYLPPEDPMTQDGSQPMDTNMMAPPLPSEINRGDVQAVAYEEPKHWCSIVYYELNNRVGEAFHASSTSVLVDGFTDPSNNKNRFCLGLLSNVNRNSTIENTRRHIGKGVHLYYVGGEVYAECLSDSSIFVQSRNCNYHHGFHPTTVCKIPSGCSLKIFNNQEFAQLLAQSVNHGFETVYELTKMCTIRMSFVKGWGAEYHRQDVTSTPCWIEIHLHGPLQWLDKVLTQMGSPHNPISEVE

What was measured:
Test in all cases: co-IP; HEK293 cells transfected with HA-MAN1 and Flag-SMAD vectors, lysed 48 h later; immunoprecipitation with anti-HA (3F10), detection with anti-Flag (M2)
[1] = biological target: T1, HA-MAN1 (full-length) W855A (human) (UniProt Q9Y2U8)
T1 sequence: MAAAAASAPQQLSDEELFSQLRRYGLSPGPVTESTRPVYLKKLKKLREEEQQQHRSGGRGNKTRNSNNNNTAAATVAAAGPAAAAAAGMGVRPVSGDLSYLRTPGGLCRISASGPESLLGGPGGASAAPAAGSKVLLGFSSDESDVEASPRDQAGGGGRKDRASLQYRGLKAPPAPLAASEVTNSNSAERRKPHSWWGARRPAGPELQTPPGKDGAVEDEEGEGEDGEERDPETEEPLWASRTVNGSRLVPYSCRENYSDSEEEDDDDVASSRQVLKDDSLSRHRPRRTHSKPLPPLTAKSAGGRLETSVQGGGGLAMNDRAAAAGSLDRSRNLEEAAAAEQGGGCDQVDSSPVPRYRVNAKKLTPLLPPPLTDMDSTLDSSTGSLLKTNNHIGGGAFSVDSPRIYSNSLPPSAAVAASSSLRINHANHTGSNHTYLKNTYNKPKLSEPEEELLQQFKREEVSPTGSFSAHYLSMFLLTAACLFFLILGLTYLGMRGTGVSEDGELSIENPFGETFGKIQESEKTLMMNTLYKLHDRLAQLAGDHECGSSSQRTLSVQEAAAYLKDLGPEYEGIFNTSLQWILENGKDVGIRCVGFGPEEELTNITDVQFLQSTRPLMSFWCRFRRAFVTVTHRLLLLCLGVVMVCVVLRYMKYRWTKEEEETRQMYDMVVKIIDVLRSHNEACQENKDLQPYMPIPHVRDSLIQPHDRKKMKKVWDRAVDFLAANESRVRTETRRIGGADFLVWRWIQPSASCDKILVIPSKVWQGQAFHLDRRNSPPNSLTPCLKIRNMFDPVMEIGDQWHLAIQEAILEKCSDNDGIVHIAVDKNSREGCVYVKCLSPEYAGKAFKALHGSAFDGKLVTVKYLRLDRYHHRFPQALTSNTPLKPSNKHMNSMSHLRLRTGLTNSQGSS

[2] = biological target: T2, HA-MAN1 (full-length) (human) (UniProt Q9Y2U8)
T2 sequence: T1 sequence with A855W

[3] = biological target: T3, HA-MAN1 (full-length) L860A (human) (UniProt Q9Y2U8)
T3 sequence: T1 sequence with A855W, L860A

[4] = biological target: T4, HA-MAN1 (full-length) F770A (human) (UniProt Q9Y2U8)
T4 sequence: T1 sequence with F770A, A855W

binding [1]: no binding | binding [2]: binds | binding [3]: no binding | binding [4]: no binding
Substance: Flag-SMAD1E (full-length) (from UniProt Q15797-1 1-465)
